Source: patent US11746085B2, “Triphenylsulfonium salt compound, and uses thereof” (Changzhou Tronly Advanced Electronic Materials Co., Ltd., priority 2018, dated 2023)

How the values were obtained:
[1] = Photosensitivity test: minimum exposure amount to form the resist pattern in an exemplary photoresist; details: Table 4; 20 μm photoresist coating, 1 part by mass photoinitiator, line i exposure, 10 μm line pattern; lower value = higher photosensitivity
[2] = Acid production rate test (UV irradiation of acetonitrile solution, KOH titration); details: Table 4; 0.02 mmol/g acetonitrile solution, 200 mj/cm^2 cumulative energy at 0.8 mw/cm^2, ultraviolet lamp FL10BL, titrated with 0.05N KOH in ethanol

SMILES	Minimum exposure amount [1]	Acid production rate [2]
CC(C)c1ccc([S+](c2ccc(-c3ccc([S+](c4ccc(C(C)C)c(F)c4)c4ccc(C(C)C)c(F)c4)cc3)cc2)c2ccc(C(C)C)c(F)c2)cc1F [Compound C-19]	140 mj/cm^2	78%
Cc1ccc([S+](c2ccccc2)c2ccc(Sc3ccc([S+](c4ccccc4)c4ccc(C)c(C(F)(F)F)c4)cc3)cc2)cc1C(F)(F)F (stereo not drawn) [Compound C-20]	170 mj/cm^2	75%
Cc1ccc([S+](c2ccc(C)c(F)c2)c2ccc3c(c2)Cc2cc([S+](c4ccc(C)c(F)c4)c4ccc(C)c(F)c4)ccc2-3)cc1F [Compound C-21]	130 mj/cm^2	80%
CCCCC1(CCCC)c2cc([S+](c3ccc(C)c(F)c3)c3ccc(C)c(F)c3)ccc2-c2ccc([S+](c3ccc(C)c(F)c3)c3ccc(C)c(F)c3)cc21 [Compound C-22]	140 mj/cm^2	78%
Cc1ccc([SH](c2ccc(C)c(F)c2)c2ccc3c(c2)oc2cc([SH](c4ccc(C)c(F)c4)c4ccc(C)c(F)c4)ccc23)cc1F [Compound C-23]	150 mj/cm^2	77%
Cc1ccc([S+](c2ccc(C)c(F)c2)c2ccc3c(c2)sc2cc([S+](c4ccc(C)c(F)c4)c4ccc(C)c(F)c4)ccc23)cc1F [Compound C-24]	150 mj/cm^2	77%
CCn1c2cc([SH](c3ccc(C)c(C(F)(F)F)c3)c3ccc(C)c(C(F)(F)F)c3)ccc2c2ccc([SH](c3ccc(C)c(C(F)(F)F)c3)c3ccc(C)c(C(F)(F)F)c3)cc21 [Compound C-25]	170 mj/cm^2	75%
Fc1cccc([S+](c2ccccc2)c2ccc(Sc3ccc([S+](c4ccccc4)c4cccc(F)c4)cc3)cc2)c1 [Compound D-1, reference compound]	180 mj/cm^2	74%
Cc1ccc([S+](c2ccccc2)c2ccc(Sc3ccc([S+](c4ccccc4)c4ccc(C)cc4)cc3)cc2)cc1 [Compound D-2, reference compound]	More than 300 mj/cm^2	49%
